{
  "source": "ChEMBL document CHEMBL4316593",
  "about": "(Eur J Med Chem, 2019)",
  "type_in_all_cases": "cell-based",
  "settings_in_all_cases": "U-87MG ATCC",
  "key": {"[1]": {"assay": "Inhibition of RTK/PI3K/AKT/mTOR signaling in human U87 cells assessed as down regulation of ARRDC4 gene expression at cytotoxic IC50 measured after 48 hrs relative to control"}, "[2]": {"assay": "Inhibition of RTK/PI3K/AKT/mTOR signaling in human U87 cells assessed as down regulation of CDC45 gene expression at cytotoxic IC50 measured after 48 hrs relative to control"}, "[3]": {"assay": "Inhibition of RTK/PI3K/AKT/mTOR signaling in human U87 cells assessed as down regulation of MYLIP gene expression at cytotoxic IC50 measured after 48 hrs relative to control"}, "[4]": {"assay": "Inhibition of RTK/PI3K/AKT/mTOR signaling in human U87 cells assessed as down regulation of ZNF720 gene expression at cytotoxic IC50 measured after 48 hrs relative to control"}, "[5]": {"assay": "Inhibition of RTK/PI3K/AKT/mTOR signaling in human U87 cells assessed as down regulation of FOSB gene expression at cytotoxic IC50 measured after 48 hrs relative to control"}, "[6]": {"assay": "Inhibition of RTK/PI3K/AKT/mTOR signaling in human U87 cells assessed as down regulation of ATP6V1D gene expression at cytotoxic IC50 measured after 48 hrs relative to control"}, "[7]": {"assay": "Inhibition of RTK/PI3K/AKT/mTOR signaling in human U87 cells assessed as down regulation of SLC35F5 gene expression at cytotoxic IC50 measured after 48 hrs relative to control"}, "[8]": {"assay": "Inhibition of RTK/PI3K/AKT/mTOR signaling in human U87 cells assessed as down regulation of RAB11FIP3 gene expression at cytotoxic IC50 measured after 48 hrs relative to control"}, "[9]": {"assay": "Inhibition of RTK/PI3K/AKT/mTOR signaling in human U87 cells assessed as down regulation of CMTR1 gene expression at cytotoxic IC50 measured after 48 hrs relative to control"}, "[10]": {"assay": "Inhibition of RTK/PI3K/AKT/mTOR signaling in human U87 cells assessed as down regulation of ETV3 gene expression at cytotoxic IC50 measured after 48 hrs relative to control"}, "[11]": {"assay": "Inhibition of RTK/PI3K/AKT/mTOR signaling in human U87 cells assessed as down regulation of PLAA gene expression at cytotoxic IC50 measured after 48 hrs relative to control"}, "[12]": {"assay": "Inhibition of RTK/PI3K/AKT/mTOR signaling in human U87 cells assessed as down regulation of POLR2A gene expression at cytotoxic IC50 measured after 48 hrs relative to control"}, "[13]": {"assay": "Inhibition of RTK/PI3K/AKT/mTOR signaling in human U87 cells assessed as down regulation of SPAG9 gene expression at cytotoxic IC50 measured after 48 hrs relative to control"}, "[14]": {"assay": "Inhibition of RTK/PI3K/AKT/mTOR signaling in human U87 cells assessed as down regulation of BLOC1S2 gene expression at cytotoxic IC50 measured after 48 hrs relative to control"}, "[15]": {"assay": "Inhibition of RTK/PI3K/AKT/mTOR signaling in human U87 cells assessed as down regulation of GSTP1 gene expression at cytotoxic IC50 measured after 48 hrs relative to control"}, "[16]": {"assay": "Inhibition of RTK/PI3K/AKT/mTOR signaling in human U87 cells assessed as down regulation of THOC5 gene expression at cytotoxic IC50 measured after 48 hrs relative to control"}, "[17]": {"assay": "Inhibition of RTK/PI3K/AKT/mTOR signaling in human U87 cells assessed as up regulation of NRSN2 gene expression at cytotoxic IC50 measured after 48 hrs relative to control"}, "[18]": {"assay": "Inhibition of RTK/PI3K/AKT/mTOR signaling in human U87 cells assessed as up regulation of OLFM2 gene expression at cytotoxic IC50 measured after 48 hrs relative to control"}, "[19]": {"assay": "Inhibition of RTK/PI3K/AKT/mTOR signaling in human U87 cells assessed as up regulation of TNFAIP8L1 gene expression at cytotoxic IC50 measured after 48 hrs relative to control"}, "[20]": {"assay": "Inhibition of RTK/PI3K/AKT/mTOR signaling in human U87 cells assessed as up regulation of zinc finger protein 33A gene expression at cytotoxic IC50 measured after 48 hrs relative to control"}, "[21]": {"assay": "Inhibition of RTK/PI3K/AKT/mTOR signaling in human U87 cells assessed as up regulation of LIF, interleukin 6 family cytokine gene expression at cytotoxic IC50 measured after 48 hrs relative to control"}, "[22]": {"assay": "Inhibition of RTK/PI3K/AKT/mTOR signaling in human U87 cells assessed as up regulation of leucine rich repeat and fibronectin type III domain containing 3 gene expression at cytotoxic IC50 measured after 48 hrs relative to control"}, "[23]": {"assay": "Inhibition of RTK/PI3K/AKT/mTOR signaling in human U87 cells assessed as up regulation of transmembrane protein 168 gene expression at cytotoxic IC50 measured after 48 hrs relative to control"}, "[24]": {"assay": "Inhibition of RTK/PI3K/AKT/mTOR signaling in human U87 cells assessed as up regulation of transforming growth factor alpha gene expression at cytotoxic IC50 measured after 48 hrs relative to control"}, "[25]": {"assay": "Inhibition of RTK/PI3K/AKT/mTOR signaling in human U87 cells assessed as up regulation of CCAAT/enhancer binding protein gamma gene expression at cytotoxic IC50 measured after 48 hrs relative to control"}, "[26]": {"assay": "Inhibition of RTK/PI3K/AKT/mTOR signaling in human U87 cells assessed as up regulation of phosphatidylinositol-5-phosphate 4-kinase type 2 alpha gene expression at cytotoxic IC50 measured after 48 hrs relative to control"}, "[27]": {"assay": "Inhibition of RTK/PI3K/AKT/mTOR signaling in human U87 cells assessed as up regulation of KRR1, small subunit processome component homolog gene expression at cytotoxic IC50 measured after 48 hrs relative to control"}, "[28]": {"assay": "Inhibition of RTK/PI3K/AKT/mTOR signaling in human U87 cells assessed as up regulation of septin 3 gene expression at cytotoxic IC50 measured after 48 hrs relative to control"}, "[29]": {"assay": "Inhibition of RTK/PI3K/AKT/mTOR signaling in human U87 cells assessed as up regulation of calumenin gene expression at cytotoxic IC50 measured after 48 hrs relative to control"}, "[30]": {"assay": "Inhibition of RTK/PI3K/AKT/mTOR signaling in human U87 cells assessed as up regulation of ubiquinol-cytochrome c reductase complex assembly factor 1 gene expression at cytotoxic IC50 measured after 48 hrs relative to control"}, "[31]": {"assay": "Inhibition of RTK/PI3K/AKT/mTOR signaling in human U87 cells assessed as up regulation of LGALS3 gene expression at cytotoxic IC50 measured after 48 hrs relative to control"}, "[32]": {"assay": "Inhibition of RTK/PI3K/AKT/mTOR signaling in human U87 cells assessed as up regulation of RACK1 gene expression at cytotoxic IC50 measured after 48 hrs relative to control"}},
  "note": "Further values from the same series stand in other lists.",
  "data": [
    {"smiles": "CC(=O)C(=NNc1ccccc1C#N)C(C)=O", "values": [
      {"measurement": "log2FC", "setting": "[1]", "result": -2.67},
      {"measurement": "log2FC", "setting": "[2]", "result": -1.73},
      {"measurement": "log2FC", "setting": "[3]", "result": -1.59},
      {"measurement": "log2FC", "setting": "[4]", "result": -1.27},
      {"measurement": "log2FC", "setting": "[5]", "result": -1.27},
      {"measurement": "log2FC", "setting": "[6]", "result": -1.1},
      {"measurement": "log2FC", "setting": "[7]", "result": -1.02},
      {"measurement": "log2FC", "setting": "[8]", "result": -0.94},
      {"measurement": "log2FC", "setting": "[9]", "result": -0.889},
      {"measurement": "log2FC", "setting": "[10]", "result": -0.886},
      {"measurement": "log2FC", "setting": "[11]", "result": -0.883},
      {"measurement": "log2FC", "setting": "[12]", "result": -0.863},
      {"measurement": "log2FC", "setting": "[13]", "result": -0.811},
      {"measurement": "log2FC", "setting": "[14]", "result": -0.791},
      {"measurement": "log2FC", "setting": "[15]", "result": -0.612},
      {"measurement": "log2FC", "setting": "[16]", "result": -0.488},
      {"measurement": "log2FC", "setting": "[17]", "result": 3.25},
      {"measurement": "log2FC", "setting": "[18]", "result": 1.75},
      {"measurement": "log2FC", "setting": "[19]", "result": 1.62},
      {"measurement": "log2FC", "setting": "[20]", "result": 1.34},
      {"measurement": "log2FC", "setting": "[21]", "result": 1.26},
      {"measurement": "log2FC", "setting": "[22]", "result": 0.974},
      {"measurement": "log2FC", "setting": "[23]", "result": 0.879},
      {"measurement": "log2FC", "setting": "[24]", "result": 0.865},
      {"measurement": "log2FC", "setting": "[25]", "result": 0.832},
      {"measurement": "log2FC", "setting": "[26]", "result": 0.807},
      {"measurement": "log2FC", "setting": "[27]", "result": 0.728},
      {"measurement": "log2FC", "setting": "[28]", "result": 0.722},
      {"measurement": "log2FC", "setting": "[29]", "result": 0.704},
      {"measurement": "log2FC", "setting": "[30]", "result": 0.655},
      {"measurement": "log2FC", "setting": "[31]", "result": 0.442},
      {"measurement": "log2FC", "setting": "[32]", "result": 0.439}
    ]}
  ]
}
